Experimental data reported in US7597692B2, “Microscission processes and procedures” (Massachusetts Institute of Technology, priority 2000, dated 2009).

System: Subject A's stratum corneum / skin around the microconduit

SMILES: CCN(CC)CC(=O)Nc1c(C)cccc1C [lidocaine]
- prick sensation at treated control site (50% Lidocaine swab held 2.5 minutes on control (non-microscissioned) stratum corneum site): same level of prick sensation as a nontreated site
- radial distance from the microconduit numbed to the point of no sensation (50% Lidocaine swab held on microconduit site for 2 minutes, needle prick, Subject A): approximately 0.015 inch
- time after which the numbness began to diminish (50% Lidocaine swab on microconduit site 2 minutes, Subject A): 9 min
